Laboratory results from the supplement of paper PMC10338343.
± gives the standard deviation. Some of the results follow. Many of these values have a large error.

These sequences were tested on EfPiwi piRISC loaded with L1MC piRNA (26 nt) (assay: pre-steady-state target cleavage rate (min^-1); guide: L1MC piRNA 5'p-UAACUAAAUACUAUGCAAGCUGUAGG; MIWI and MILI are mouse PIWI proteins and EfPiwi is from a freshwater sponge; tags in brackets are library labels; higher = faster piRNA-guided slicing of the target). Settings: auxiliary factor: 500 nM Ephydatia muelleri Gtsf1.
In short: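 Active affinity-purified piRISC (1 nM) loaded with one synthetic guide was mixed with a transcribed, DNA-blocked target RNA library (0.1 nM), with or without 500 nM GTSF1 partner protein, in HEPES–potassium acetate buffer at 33 °C for 0–8 or 0–960 min. Uncleaved targets were sequenced, normalised to depth and to weakly complementary targets, and pooled across three trials, with k3 capped at 0.0001 min^-1. The pre-steady-state cleavage rate was determined with a burst-and-steady-state fit.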
In the case of UCCUCCUACAGCUUGCAUUGUAUUUAGUAA, the “pre-steady-state target cleavage rate” value is reported as 0.00648 ± 0.0029.
For UCCUGGAUCAGCUUGCAUAGUAUUAGUUA, the “pre-steady-state target cleavage rate” value was 0.00236 ± 0.0031.
For UCCUGGAACUCGUUGCAUAGUAUUUAGUAA, the “pre-steady-state target cleavage rate” value was 0.00259 ± 0.0037.
With UCCUGGAUCAGCUUGGUUAGUAUUUAGUUA the “pre-steady-state target cleavage rate” value was 0.00217 ± 0.0034.
With UCCUGGAUCUGCUAGCAUAGUAUUUAGUUA the “pre-steady-state target cleavage rate” value was 0.0121 ± 0.0038.
With UCCUGCUACUGCUUGCAUAGUAAUUAGUUA the “pre-steady-state target cleavage rate” value was 0.00587 ± 0.0019.
With UCCUCCUACACCUUGGAUAGUAUUUAGUUA the “pre-steady-state target cleavage rate” value was 0.00658 ± 0.0029.
For UCCUGGAUGUCGAACGUAAGUAUUUAGUGA, the “pre-steady-state target cleavage rate” value was < 0.0001.
With UCCUGCUACAGCUAUGCAUAGUAUUUAGUUA the “pre-steady-state target cleavage rate” value was 0.012 ± 0.0044.
For UCCUGGAUGAGCUAGCAUAGUAUUUAGUAA, the “pre-steady-state target cleavage rate” value was 0.00419 ± 0.0024.
With UCCUGCAUCAGCUUGCAUAGUAUUUAGUAA the “pre-steady-state target cleavage rate” value was 0.00847 ± 0.0021.
In the case of UCCUGCUCCAGCUUGCAUAGUAUUUAGUUA, the “pre-steady-state target cleavage rate” value is reported as 0.0877 ± 0.024.
UCCUCCUACAGCUUGGAUAGUAUUAAGUUA was tested, and the “pre-steady-state target cleavage rate” value was 0.00905 ± 0.0043.
UCCUGGAUGUCGAACGUUAGAUUUAGUUA was tested, and the “pre-steady-state target cleavage rate” value was < 0.0001.
In the case of UCCUCCUACAGCUCUGCAUAGUAUUUAGUUA, the “pre-steady-state target cleavage rate” value is reported as 0.0445 ± 0.014.
With UCCUGGAUGAGGUUGCAUAGUAUUUAGUAA the “pre-steady-state target cleavage rate” value was 0.00223 ± 0.004.
With UCCUGGAUGUGCUAGCAUAGUAUUUAGUUA the “pre-steady-state target cleavage rate” value was 0.00573 ± 0.0027.
In the case of UCCUGGAUCAGCUUGCAAUGUAUUUAGUUA, the “pre-steady-state target cleavage rate” value is reported as 0.00462 ± 0.0039.
For UCCUGCUUCAGCUUGCAUAGUAAUUAGUUA, the “pre-steady-state target cleavage rate” value was 0.00863 ± 0.003.
With UCCUGGAUGUCGAUGGUUAGUAUUUAGUUA the “pre-steady-state target cleavage rate” value was 0.000347 ± 0.009.
UCCUGCUACAGCUUCCAAAGUAUUUAGUUA was tested, and the “pre-steady-state target cleavage rate” value was 0.00321 ± 0.0019.
In the case of UCCUGGAUCAGCUUGCACAGUAUUUAGUUA, the “pre-steady-state target cleavage rate” value is reported as 0.0672 ± 0.016.
UCCUGGUACAGCUUGCAUAUUAUUUAGUUA was tested, and the “pre-steady-state target cleavage rate” value was 0.00464 ± 0.0037.
In the case of UCCUGGAUGUCCUUUGCAUAGUAUUUAGUUA, the “pre-steady-state target cleavage rate” value is reported as 0.00785 ± 0.0043.
With UCCUGCUACGGCUUGCAUAGUAUUUAGUUA the “pre-steady-state target cleavage rate” value was 0.00972 ± 0.0027.
In the case of UCCUGGAUCAGCUUGCAUAGUAUUCAGUUA, the “pre-steady-state target cleavage rate” value is reported as 0.00509 ± 0.0019.
UCCUGGAUGUACUUGCAUAGUAUUUAGUUA was tested, and the “pre-steady-state target cleavage rate” value was 0.00383 ± 0.0029.
For UCCUGCUACAGCUUGCUUAGUAAUUAGUUA, the “pre-steady-state target cleavage rate” value was 0.0139 ± 0.0051.
With UCCUGGAUGUCGAUCCAUAGUAUAUAGUUA the “pre-steady-state target cleavage rate” value was 0.000616 ± 0.0091.
For UCCUGGAUGAGCUUGGUUAGUAUUUAGUUA, the “pre-steady-state target cleavage rate” value was 0.00153 ± 0.0036.
UCCUCCUACAGCUUGCAUAGUAUUUUAGUUA was tested, and the “pre-steady-state target cleavage rate” value was 0.0456 ± 0.014.

Same assay, conditions: auxiliary factor: none (no Gtsf1)
UCCUGGAUGUCGAACCAAAGUAUAUAGUUA was tested, and the “pre-steady-state target cleavage rate” value was 0.000122 ± 0.051.
For UCCUGGAACUGCUUGCAUAGUAUAUAGUUA, the “pre-steady-state target cleavage rate” value was 0.00328 ± 0.0051.
In the case of UCCUGGUACAGCUUGCAAUCUAUUUAGUUA, the “pre-steady-state target cleavage rate” value is reported as 0.000288 ± 0.028.
With UCCUGGAUGAGCAUGCAUAGUAUUUAGUAA the “pre-steady-state target cleavage rate” value was 0.000702 ± 0.015.
In the case of UCCUGGAAGAGCUUGCAUAGUAUAUAGUUA, the “pre-steady-state target cleavage rate” value is reported as 0.00208 ± 0.0053.
With UCCUGCUACAGCUUGGAUAGUAUUUAGUAA the “pre-steady-state target cleavage rate” value was 0.000363 ± 0.012.
With UCCUCCAACAGCUAGCAUAGUAUUUAGUUA the “pre-steady-state target cleavage rate” value was 0.000574 ± 0.0083.
UCCUGGAUGUCGAUGCAUAGUUUAUAGUUA was tested, and the “pre-steady-state target cleavage rate” value was 0.000122 ± 0.03.
In the case of UCCUGGAUCAGCUUGCAAUAGUAUUUAGUUA, the “pre-steady-state target cleavage rate” value is reported as 0.00101 ± 0.0083.
